# Results from PMC4725906.
# Protein sequences, listed by entry. Tags and fused reporters are not part of them.
# UniProt P48432: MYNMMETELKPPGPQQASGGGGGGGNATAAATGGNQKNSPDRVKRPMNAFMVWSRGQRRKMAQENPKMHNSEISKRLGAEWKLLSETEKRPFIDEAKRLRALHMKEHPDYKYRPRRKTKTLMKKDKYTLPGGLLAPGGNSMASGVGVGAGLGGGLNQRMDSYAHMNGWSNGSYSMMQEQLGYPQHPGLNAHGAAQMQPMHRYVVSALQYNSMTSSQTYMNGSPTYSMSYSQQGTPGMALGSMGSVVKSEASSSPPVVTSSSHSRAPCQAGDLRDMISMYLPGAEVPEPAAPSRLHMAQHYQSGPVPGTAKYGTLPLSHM
# No constants are given. Whether binding was seen depends on the method and setting. Binding seen in cells or lysates may run through a third protein. Some entries that bind do so weakly or less than the wild type. Tags and fused reporters may be left off the sequences shown.
# Biological target: T1, NANOG, C-terminal 3x FLAG tag (UniProt Q80Z64)
# T1 sequence: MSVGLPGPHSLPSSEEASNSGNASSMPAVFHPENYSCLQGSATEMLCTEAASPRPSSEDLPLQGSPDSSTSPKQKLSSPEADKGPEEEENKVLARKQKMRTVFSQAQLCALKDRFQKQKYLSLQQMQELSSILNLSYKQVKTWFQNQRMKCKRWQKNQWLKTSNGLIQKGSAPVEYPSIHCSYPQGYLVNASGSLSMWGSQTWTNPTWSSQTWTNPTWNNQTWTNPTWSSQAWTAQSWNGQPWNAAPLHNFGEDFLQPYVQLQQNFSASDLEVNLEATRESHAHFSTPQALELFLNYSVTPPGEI
# Assay: co-IP; 293T cells co-transfected with E1A-FLAG or Nanog-FLAG plus Sox2-myc and Oct4-V5; lysis in 50 mM Tris-HCl pH 7.4, 0.1% IGEPAL CA-630, 5 mM EDTA, 150 mM NaCl, brief sonication; anti-FLAG antibody on Protein G Dynabeads overnight; washes with 125 mM NaCl; elution with 3x FLAG peptide; blots for FLAG, Myc and V5
substance,measurement,value
"SOX2, C-terminal 3x Myc tag (from UniProt P48432 1-319)",binding,binds
